These are yes or no findings as the source states them, for the method shown. Some results given as binding are weak or reduced against the parent protein; the word gives no strength.
Molecular target: 食蟹猴CD47-his蛋白 (Acro biosystems, cat#CD7-C52H1, MW 15.8 kDa) (cynomolgus monkey)
Test: capture ELISA; antibody captured by goat anti-mouse IgG Fcγ, biotinylated cynomolgus CD47 at 60 nM

B1: 本发明的单克隆抗体1D5 (小鼠抗CD47单克隆抗体) (antibody, V domains shown)
VH: EVQLQQSGAELVRSGASVKLSCTASGFNIKDYYMSWVRQRPEQGLEWIGWIDPKNGDTAYDPKFQGKATMTADTSSNTAYLQFSSLTSEDTADYYCNAGGRGGFAYWGQGTLVTVSA
VL: DVLMTQTPLSLPVSLGDQASISCRSNQSIVHSNGYTYLEWYLQKPGQSPKLLIYKVSNRFSGVPDRFSGSGSGTDFTLRISRVEAEDLGVYYCFQGSHVPRTFGGGTKLEIK
binding: binds
